This is one part of the list.
Experiments:
Test in all cases: log2 fold change, soluble protein after heating vs DMSO (PISA); higher = thermal stabilisation; K562 lysate, 10 uM; active = over 0.2 and 3.5 SD of the protein, either way, in both replicates (recomputed)
alvocidib = compound: CN1CC[C@H](c2c(O)cc(O)c3c(=O)cc(-c4ccccc4Cl)oc23)[C@H](O)C1 [alvocidib]
In short: (§1)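 Following dounce homogenisation of K562 pellets in PBS pH 7.4 with 1 mM MgCl2, crude extract at 1 mg/mL protein was incubated for 30 min with 10 μM compound. Aliquots were then heated for 3 min over 48°C-58°C and pooled, NP-40 was added to 0.5% at 4°C, and soluble protein was recovered as the supernatant at 21,000xg for 90 min. Channel-sum-equalised TMTpro 16plex LC-MS/MS quantified this protein. Each value, from duplicates, is a log-two fold change in thermal stability relative to solvent controls.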

By UniProt entry, the sequences of proteins in these tests, tags left out. Where a name states a change or a piece, a line headed by the entry shows the natural chain unless it says otherwise.
UniProt P60059: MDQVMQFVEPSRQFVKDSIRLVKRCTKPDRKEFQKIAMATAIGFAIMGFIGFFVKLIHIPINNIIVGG
UniProt P55735: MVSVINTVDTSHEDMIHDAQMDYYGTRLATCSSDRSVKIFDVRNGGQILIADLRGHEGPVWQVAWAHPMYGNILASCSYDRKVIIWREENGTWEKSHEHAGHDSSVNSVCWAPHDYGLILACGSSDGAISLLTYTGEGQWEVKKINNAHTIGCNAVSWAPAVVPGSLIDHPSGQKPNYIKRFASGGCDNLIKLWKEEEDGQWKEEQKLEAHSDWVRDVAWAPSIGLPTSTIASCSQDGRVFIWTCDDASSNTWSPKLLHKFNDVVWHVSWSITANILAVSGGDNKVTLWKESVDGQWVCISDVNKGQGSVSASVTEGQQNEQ
UniProt O15126: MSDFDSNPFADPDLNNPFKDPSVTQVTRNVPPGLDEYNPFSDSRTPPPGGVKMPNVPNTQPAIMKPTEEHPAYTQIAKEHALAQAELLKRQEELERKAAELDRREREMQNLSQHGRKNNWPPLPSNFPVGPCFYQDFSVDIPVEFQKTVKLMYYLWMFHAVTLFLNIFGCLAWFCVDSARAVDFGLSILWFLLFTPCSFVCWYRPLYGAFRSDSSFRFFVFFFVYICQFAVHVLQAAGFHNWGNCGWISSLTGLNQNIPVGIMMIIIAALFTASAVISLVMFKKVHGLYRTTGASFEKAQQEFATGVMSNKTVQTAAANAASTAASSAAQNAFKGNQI
UniProt Q9BRK5: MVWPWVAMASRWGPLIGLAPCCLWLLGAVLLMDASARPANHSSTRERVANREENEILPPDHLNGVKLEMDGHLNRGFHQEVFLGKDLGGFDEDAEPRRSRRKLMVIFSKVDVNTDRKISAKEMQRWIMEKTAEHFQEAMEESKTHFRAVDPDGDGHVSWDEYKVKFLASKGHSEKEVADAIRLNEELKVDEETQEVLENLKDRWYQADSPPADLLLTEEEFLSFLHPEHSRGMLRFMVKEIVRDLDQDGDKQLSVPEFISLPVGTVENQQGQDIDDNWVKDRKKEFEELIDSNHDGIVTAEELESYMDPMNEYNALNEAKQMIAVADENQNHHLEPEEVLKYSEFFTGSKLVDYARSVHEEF
UniProt Q0VDG4: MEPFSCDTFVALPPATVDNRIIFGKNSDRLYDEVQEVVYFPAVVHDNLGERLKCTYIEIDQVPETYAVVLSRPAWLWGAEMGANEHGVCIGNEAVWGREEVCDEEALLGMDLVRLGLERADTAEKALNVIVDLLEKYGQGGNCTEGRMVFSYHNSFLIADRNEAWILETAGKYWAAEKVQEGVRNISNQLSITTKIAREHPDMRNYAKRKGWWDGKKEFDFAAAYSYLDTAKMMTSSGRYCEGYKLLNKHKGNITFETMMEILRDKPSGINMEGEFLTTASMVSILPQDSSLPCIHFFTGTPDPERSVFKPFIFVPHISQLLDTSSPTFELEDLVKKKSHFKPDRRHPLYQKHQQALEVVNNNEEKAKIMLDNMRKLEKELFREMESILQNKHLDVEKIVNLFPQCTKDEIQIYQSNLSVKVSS
UniProt Q9BWG6: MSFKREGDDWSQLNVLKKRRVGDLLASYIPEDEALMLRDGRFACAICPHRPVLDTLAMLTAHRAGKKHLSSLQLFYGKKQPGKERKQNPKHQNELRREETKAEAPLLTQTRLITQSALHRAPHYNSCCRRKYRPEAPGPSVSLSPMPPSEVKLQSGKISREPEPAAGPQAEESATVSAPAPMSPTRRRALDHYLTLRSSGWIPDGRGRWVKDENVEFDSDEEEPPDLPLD
UniProt Q9H0E3: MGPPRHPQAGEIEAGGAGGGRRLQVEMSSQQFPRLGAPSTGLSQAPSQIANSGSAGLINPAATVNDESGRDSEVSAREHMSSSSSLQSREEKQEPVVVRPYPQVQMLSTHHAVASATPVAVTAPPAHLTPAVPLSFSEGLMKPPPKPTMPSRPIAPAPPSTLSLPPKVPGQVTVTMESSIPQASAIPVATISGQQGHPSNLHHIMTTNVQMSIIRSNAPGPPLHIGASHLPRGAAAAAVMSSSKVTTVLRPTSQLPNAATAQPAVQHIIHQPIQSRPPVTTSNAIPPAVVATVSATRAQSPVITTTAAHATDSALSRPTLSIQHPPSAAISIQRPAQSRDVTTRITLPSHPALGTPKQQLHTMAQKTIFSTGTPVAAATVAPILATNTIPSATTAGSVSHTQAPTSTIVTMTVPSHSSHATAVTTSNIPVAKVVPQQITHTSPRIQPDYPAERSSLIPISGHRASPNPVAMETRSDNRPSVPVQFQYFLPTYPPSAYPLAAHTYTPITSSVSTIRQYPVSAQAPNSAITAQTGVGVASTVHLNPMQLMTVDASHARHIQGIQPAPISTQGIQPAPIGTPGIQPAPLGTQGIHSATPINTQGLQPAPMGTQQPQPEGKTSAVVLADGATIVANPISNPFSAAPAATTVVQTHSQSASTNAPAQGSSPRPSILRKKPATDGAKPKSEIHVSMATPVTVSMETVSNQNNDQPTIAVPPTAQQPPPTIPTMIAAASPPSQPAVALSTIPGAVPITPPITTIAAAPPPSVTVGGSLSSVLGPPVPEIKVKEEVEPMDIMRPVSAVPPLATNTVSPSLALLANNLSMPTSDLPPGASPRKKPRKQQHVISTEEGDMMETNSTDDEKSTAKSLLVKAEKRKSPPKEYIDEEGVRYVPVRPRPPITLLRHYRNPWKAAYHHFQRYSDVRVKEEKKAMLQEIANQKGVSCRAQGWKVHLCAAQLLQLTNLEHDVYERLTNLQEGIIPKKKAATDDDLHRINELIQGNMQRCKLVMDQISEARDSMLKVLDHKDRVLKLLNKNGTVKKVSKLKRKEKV
UniProt Q96BU1: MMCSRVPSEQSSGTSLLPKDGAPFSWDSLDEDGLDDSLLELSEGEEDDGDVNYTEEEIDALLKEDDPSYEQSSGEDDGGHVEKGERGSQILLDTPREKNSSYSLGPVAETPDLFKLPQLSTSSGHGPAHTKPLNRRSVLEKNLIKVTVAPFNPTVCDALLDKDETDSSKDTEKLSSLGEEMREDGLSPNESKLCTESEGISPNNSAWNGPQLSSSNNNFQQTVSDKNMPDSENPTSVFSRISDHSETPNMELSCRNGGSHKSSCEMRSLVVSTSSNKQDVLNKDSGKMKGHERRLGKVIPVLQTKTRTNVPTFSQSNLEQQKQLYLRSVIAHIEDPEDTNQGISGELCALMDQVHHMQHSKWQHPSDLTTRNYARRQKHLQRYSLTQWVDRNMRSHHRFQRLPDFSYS
UniProt Q8N9R8: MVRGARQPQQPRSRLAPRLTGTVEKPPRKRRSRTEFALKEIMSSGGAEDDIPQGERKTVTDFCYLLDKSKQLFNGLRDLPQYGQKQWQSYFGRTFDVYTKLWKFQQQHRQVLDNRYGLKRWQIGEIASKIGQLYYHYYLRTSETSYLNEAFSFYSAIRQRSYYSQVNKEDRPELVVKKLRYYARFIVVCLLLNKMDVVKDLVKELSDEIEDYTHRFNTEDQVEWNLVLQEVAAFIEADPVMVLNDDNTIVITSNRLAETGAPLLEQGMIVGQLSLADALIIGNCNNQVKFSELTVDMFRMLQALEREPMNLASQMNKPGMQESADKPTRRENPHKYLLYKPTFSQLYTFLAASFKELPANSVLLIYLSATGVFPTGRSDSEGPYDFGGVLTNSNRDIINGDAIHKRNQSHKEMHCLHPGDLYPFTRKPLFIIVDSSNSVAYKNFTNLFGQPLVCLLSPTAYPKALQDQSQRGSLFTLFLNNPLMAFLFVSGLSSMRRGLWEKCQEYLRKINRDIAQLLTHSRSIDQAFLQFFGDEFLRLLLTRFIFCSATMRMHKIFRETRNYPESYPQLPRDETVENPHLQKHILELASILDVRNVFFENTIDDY
UniProt O95969: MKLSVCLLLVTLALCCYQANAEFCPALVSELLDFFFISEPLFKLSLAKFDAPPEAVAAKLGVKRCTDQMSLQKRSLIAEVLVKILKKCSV
UniProt Q68CR1: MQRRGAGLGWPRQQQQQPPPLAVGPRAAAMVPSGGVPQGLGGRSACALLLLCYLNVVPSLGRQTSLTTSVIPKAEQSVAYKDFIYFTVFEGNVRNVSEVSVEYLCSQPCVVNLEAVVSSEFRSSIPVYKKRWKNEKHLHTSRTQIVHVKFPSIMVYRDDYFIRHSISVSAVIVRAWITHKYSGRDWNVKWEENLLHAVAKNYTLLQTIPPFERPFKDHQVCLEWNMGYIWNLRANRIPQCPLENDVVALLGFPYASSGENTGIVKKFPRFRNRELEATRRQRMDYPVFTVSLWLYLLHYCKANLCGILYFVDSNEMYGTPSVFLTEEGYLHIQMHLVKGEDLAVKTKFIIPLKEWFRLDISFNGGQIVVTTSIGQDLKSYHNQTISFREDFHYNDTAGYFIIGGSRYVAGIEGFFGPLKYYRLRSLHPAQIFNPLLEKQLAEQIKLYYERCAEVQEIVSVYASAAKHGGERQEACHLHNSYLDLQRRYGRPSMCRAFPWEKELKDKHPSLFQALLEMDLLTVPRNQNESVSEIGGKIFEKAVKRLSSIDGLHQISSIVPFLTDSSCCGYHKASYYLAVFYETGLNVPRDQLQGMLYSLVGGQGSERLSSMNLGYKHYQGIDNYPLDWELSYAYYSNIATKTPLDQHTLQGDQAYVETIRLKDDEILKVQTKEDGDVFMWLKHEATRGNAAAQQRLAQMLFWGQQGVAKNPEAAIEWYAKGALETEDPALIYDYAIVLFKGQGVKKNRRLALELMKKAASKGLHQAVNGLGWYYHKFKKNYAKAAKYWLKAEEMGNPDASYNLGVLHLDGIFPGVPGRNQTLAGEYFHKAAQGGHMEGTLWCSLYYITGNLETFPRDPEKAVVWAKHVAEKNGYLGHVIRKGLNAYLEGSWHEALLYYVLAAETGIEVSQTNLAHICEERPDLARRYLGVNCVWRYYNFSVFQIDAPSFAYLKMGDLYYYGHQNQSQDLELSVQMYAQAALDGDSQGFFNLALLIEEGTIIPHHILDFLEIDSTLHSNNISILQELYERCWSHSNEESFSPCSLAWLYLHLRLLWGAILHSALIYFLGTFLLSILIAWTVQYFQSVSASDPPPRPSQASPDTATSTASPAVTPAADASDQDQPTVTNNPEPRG
UniProt Q9BVL4, whole entry, looked up: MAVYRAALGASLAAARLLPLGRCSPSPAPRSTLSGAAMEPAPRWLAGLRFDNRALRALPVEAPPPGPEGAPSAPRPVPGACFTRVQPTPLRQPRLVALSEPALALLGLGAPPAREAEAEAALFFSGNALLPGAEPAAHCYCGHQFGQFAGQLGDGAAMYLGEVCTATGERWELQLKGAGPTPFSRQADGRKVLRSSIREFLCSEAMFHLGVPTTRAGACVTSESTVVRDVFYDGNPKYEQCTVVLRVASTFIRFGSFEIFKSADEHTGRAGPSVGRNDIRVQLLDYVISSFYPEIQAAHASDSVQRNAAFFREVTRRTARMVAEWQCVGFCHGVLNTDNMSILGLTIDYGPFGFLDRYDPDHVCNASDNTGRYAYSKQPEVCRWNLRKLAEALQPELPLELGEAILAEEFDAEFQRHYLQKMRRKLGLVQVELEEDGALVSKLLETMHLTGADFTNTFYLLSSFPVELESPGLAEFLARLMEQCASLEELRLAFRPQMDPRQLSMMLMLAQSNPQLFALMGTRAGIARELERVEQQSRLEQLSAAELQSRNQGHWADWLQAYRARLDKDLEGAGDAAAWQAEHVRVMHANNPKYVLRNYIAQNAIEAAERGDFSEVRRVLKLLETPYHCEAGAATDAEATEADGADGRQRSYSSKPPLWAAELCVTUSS
UniProt Q8WXD2: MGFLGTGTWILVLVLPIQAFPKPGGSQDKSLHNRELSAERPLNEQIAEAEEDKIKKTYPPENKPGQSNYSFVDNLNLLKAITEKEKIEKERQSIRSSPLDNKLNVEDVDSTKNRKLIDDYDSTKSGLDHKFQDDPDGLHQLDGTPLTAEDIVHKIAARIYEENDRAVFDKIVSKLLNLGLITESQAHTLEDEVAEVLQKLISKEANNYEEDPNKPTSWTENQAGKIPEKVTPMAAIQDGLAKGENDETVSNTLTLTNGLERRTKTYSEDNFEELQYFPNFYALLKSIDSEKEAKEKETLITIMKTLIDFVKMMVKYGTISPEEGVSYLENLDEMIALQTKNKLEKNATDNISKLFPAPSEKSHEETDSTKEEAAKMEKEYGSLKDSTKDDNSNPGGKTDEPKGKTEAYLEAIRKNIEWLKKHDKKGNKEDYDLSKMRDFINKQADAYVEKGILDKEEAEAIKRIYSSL
UniProt P63302, whole entry, looked up: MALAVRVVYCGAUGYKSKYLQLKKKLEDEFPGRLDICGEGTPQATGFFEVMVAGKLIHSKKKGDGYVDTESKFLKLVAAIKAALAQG
UniProt Q9NRG7: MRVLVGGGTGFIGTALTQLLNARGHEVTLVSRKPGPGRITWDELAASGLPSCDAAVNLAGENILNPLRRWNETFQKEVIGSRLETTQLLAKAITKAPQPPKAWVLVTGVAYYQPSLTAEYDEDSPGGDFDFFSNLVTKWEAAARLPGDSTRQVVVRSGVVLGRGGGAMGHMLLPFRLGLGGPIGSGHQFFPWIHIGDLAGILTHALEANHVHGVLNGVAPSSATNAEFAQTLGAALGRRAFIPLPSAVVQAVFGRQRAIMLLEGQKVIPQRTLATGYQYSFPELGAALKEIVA

Tubastatin A = compound: CN1CCc2c(c3ccccc3n2Cc2ccc(C(=O)NO)cc2)C1 [Tubastatin A]
In short: as §1

[1] = compound: CNC(=O)C1=CC=CC=C1NC2=NC(=NC=C2Cl)NC3=C(C=C(C=C3)N4CCOCC4)OC
In short: as §1

defactinib = compound: CNC(=O)c1ccc(Nc2ncc(C(F)(F)F)c(NCc3nccnc3N(C)S(C)(=O)=O)n2)cc1 [defactinib]
In short: as §1

[2] = compound: CNc1nc(-c2ccc3c(N)n[nH]c3c2)cc(N2C[C@@H](C(=O)NC3CCCCC3)CC[C@H]2C)n1
In short: as §1

encorafenib = compound: COC(=O)N[C@@H](C)CNc1nccc(-c2cn(C(C)C)nc2-c2cc(Cl)cc(NS(C)(=O)=O)c2F)n1 [encorafenib]
In short: as §1

[3] = compound: COC(=O)[C@H](CCSC)NC(=O)C1=C(C=C(C=C1)NC[C@H](CS)N)C2=CC=CC=C2
In short: as §1

alisertib = compound: COc1cc(Nc2ncc3c(n2)-c2ccc(Cl)cc2C(c2c(F)cccc2OC)=NC3)ccc1C(=O)O [alisertib]
In short: as §1

[4] = compound: COc1cc2nc(-c3cc(F)ccc3O)nc(N[C@@H]3CNC[C@H]3C(C)(C)O)c2cc1OC
In short: as §1

gefitinib = compound: COc1cc2ncnc(Nc3ccc(F)c(Cl)c3)c2cc1OCCCN1CCOCC1 [gefitinib]
In short: as §1

Measured: log2 fold change

SCAMP2 (UniProt O15127)
inactive: alvocidib -0.069 | Tubastatin A 0.106 | [1] 0.025 | defactinib 0.026 | [2] 0.003 | encorafenib 0.011 | [3] -0.093 | alisertib -0.094 | [4] 0.07 | gefitinib -0.019

SEC61G (UniProt P60059)
inactive: alvocidib -0.107 | Tubastatin A 0.063 | [1] 0.09 | defactinib 0.045 | [2] 0.137 | encorafenib -0.02 | [3] 0.067 | alisertib 0.053 | [4] 0.009 | gefitinib 0.036

SCLT1 (UniProt Q96NL6)
inactive: alvocidib -0.08 | Tubastatin A 0.061 | [1] 0.007 | defactinib -0.044 | [2] 0.035 | encorafenib 0.07 | [3] 0.228 | alisertib 0.033 | [4] 0.055 | gefitinib -0.018

SEMA4C (UniProt Q9C0C4)
inactive: alvocidib 0.015 | Tubastatin A 0.067 | [1] 0.01 | defactinib -0.018 | [2] 0.011 | encorafenib 0.026 | [3] -0.048 | alisertib 0.018 | [4] 0.002 | gefitinib 0.007

SEC13 isoform 3 (UniProt P55735)
inactive: alvocidib 0.107 | Tubastatin A 0.029 | [1] -0.024 | defactinib -0.06 | [2] -0.064 | encorafenib 0.002 | [3] -0.039 | alisertib 0.02 | [4] -0.004 | gefitinib 0.03

SCCPDH (UniProt Q8NBX0)
inactive: alvocidib -0.051 | Tubastatin A 0.044 | [1] 0.05 | defactinib 0.028 | [2] 0.333 | encorafenib -0.076 | [3] 0.129 | alisertib -0.011 | [4] 0.005 | gefitinib -0.063

SCAMP4 (UniProt Q969E2)
inactive: alvocidib 0 | Tubastatin A 0.025 | [1] 0.029 | defactinib -0.106 | [2] 0.041 | encorafenib 0.045 | [3] -0.049 | alisertib 0.005 | [4] 0.052 | gefitinib 0.023

SEC61A2 (UniProt Q9H9S3)
inactive: alvocidib -0.066 | Tubastatin A 0.023 | [1] -0.006 | defactinib -0.004 | [2] 0.087 | encorafenib 0.064 | [3] -0.049 | alisertib -0.041 | [4] 0.08 | gefitinib 0.05

SDF2L1 (UniProt Q9HCN8)
inactive: alvocidib 0.004 | Tubastatin A 0.03 | [1] 0.009 | defactinib -0.005 | [2] 0.032 | encorafenib 0.026 | [3] -0.04 | alisertib 0.055 | [4] -0.007 | gefitinib -0.025

SEC24A (UniProt O95486)
inactive: alvocidib 0.009 | Tubastatin A 0.007 | [1] -0.007 | defactinib 0.023 | [2] -0.018 | encorafenib -0.008 | [3] 0.022 | alisertib 0.091 | [4] -0.009 | gefitinib 0.023

SCAMP1 (UniProt O15126)
inactive: alvocidib -0.118 | Tubastatin A 0.043 | [1] -0.059 | defactinib -0.027 | [2] 0.006 | encorafenib 0.011 | [3] -0.019 | alisertib 0.046 | [4] 0.038 | gefitinib 0.061

SDF4 (UniProt Q9BRK5)
inactive: alvocidib 0.036 | Tubastatin A -0.002 | [1] -0.001 | defactinib 0.012 | [2] -0.078 | encorafenib -0.015 | [3] -0.022 | alisertib -0.018 | [4] 0.011 | gefitinib -0.01

SCRN3 (UniProt Q0VDG4)
inactive: alvocidib -0.003 | Tubastatin A 0.011 | [1] 0.047 | defactinib -0.001 | [2] 0.009 | encorafenib -0.044 | [3] -0.009 | alisertib -0.036 | [4] -0.012 | gefitinib 0.016

SCNM1 (UniProt Q9BWG6)
inactive: alvocidib -0.005 | Tubastatin A 0.035 | [1] 0.117 | [2] 0.127 | encorafenib 0.115 | [3] -0.311 | alisertib 0.035 | [4] 0.15 | gefitinib 0.114

SAP130 isoform 3 (UniProt Q9H0E3)
inactive: alvocidib -0.05 | Tubastatin A 0.058 | [1] 0.146 | defactinib -0.044 | [2] 0.003 | encorafenib 0.06 | [3] 0.041 | [4] -0.01

S100PBP (UniProt Q96BU1)
inactive: alvocidib -0.071 | Tubastatin A -0.063 | [1] -0.031 | defactinib 0.121 | [2] 0.092 | encorafenib 0.19 | [3] -0.12 | alisertib -0.061 | [4] 0.025 | gefitinib 0.001

SCAI isoform 2 (UniProt Q8N9R8)
inactive: alvocidib -0.164 | Tubastatin A -0.461 | defactinib -0.024 | encorafenib -0.105 | [3] 0.039 | alisertib -0.635 | gefitinib 0.045

SAE1 (UniProt Q9UBE0)
inactive: alvocidib 0.019 | Tubastatin A 0.004 | [1] -0.022 | defactinib -0.036 | [2] -0.015 | encorafenib -0.022 | [3] 0.017 | alisertib -0.007 | [4] 0.003 | gefitinib -0.042

SDCBP isoform 2 (UniProt O00560)
inactive: alvocidib -0.279 | Tubastatin A 0.113 | [1] -0.12 | [2] 0.097 | alisertib -0.105 | gefitinib -0.06

SCAF8 (UniProt Q9UPN6)
inactive: alvocidib -0.001 | Tubastatin A -0.068 | [1] -0.028 | defactinib -0.015 | [2] 0.003 | encorafenib 0.02 | [3] 0.043 | alisertib 0.003 | [4] 0.008 | gefitinib -0.007

SCGB1D2 (UniProt O95969)
inactive: alvocidib 0.219 | Tubastatin A 0.179 | [1] -0.356 | [2] -0.789 | encorafenib 0 | [3] 0.074 | alisertib -0.052 | [4] 0.011 | gefitinib 0.051

SEL1L3 (UniProt Q68CR1)
inactive: alvocidib -0.017 | Tubastatin A 0.051 | [1] -0.234 | defactinib 0.028 | [2] -0.063 | encorafenib -0.088 | [3] -0.061 | alisertib 0.093 | gefitinib -0.218

SENP3 (UniProt Q9H4L4)
inactive: alvocidib -0.12 | [1] 0.1 | defactinib 0.023 | [2] -0.056 | encorafenib -0.109 | [3] 0.284 | [4] -0.01

SAMD1 (UniProt Q6SPF0)
inactive: alvocidib -0.065 | Tubastatin A -0.057 | [2] -0.086 | encorafenib 0.103 | [3] -0.039 | alisertib -0.073 | [4] -0.029 | gefitinib -0.037

SECISBP2 (UniProt Q96T21)
inactive: alvocidib 0.089 | Tubastatin A -0.049 | defactinib 0.031 | [2] 0.081 | encorafenib 0 | [3] -0.211 | alisertib 0.013 | [4] 0.293 | gefitinib -0.191

Taken from the results shown (2 entries):
SEL1L3 (UniProt Q68CR1)
inactive: alvocidib -0.017 | Tubastatin A 0.051 | [1] -0.234 | defactinib 0.028 | [2] -0.063 | encorafenib -0.088 | [3] -0.061 | alisertib 0.093 | gefitinib -0.218

SENP3 (UniProt Q9H4L4)
inactive: alvocidib -0.12 | [1] 0.1 | defactinib 0.023 | [2] -0.056 | encorafenib -0.109 | [3] 0.284 | [4] -0.01

More entries follow:

SELENOO (UniProt Q9BVL4)
inactive: alvocidib 0.094 | Tubastatin A -0.411 | [2] 0.087 | alisertib 0.064 | [4] -0.094 | gefitinib -0.063

SEC11C (UniProt Q9BY50)
inactive: alvocidib 0.018 | Tubastatin A 0.098 | [1] 0.01 | defactinib 0.019 | [2] 0.012 | alisertib 0.006 | [4] -0.013 | gefitinib -0.061

SCG3 (UniProt Q8WXD2)
inactive: alvocidib -0.034 | [1] 0.03 | defactinib 0.073 | [2] -0.156 | encorafenib 0.019 | [3] -0.199 | alisertib -0.024 | gefitinib 0.046

SCRN2 (UniProt Q96FV2)
inactive: alvocidib 0.044 | Tubastatin A 0.105 | [1] -0.098 | defactinib 0.15 | [2] -0.141 | encorafenib -0.038 | [3] 0.011 | alisertib 0.1 | [4] 0.019 | gefitinib 0.095

SARM1 (UniProt Q6SZW1)
inactive: alvocidib 0.058 | [1] -0.144 | alisertib 0.144 | [4] 0.104 | gefitinib -0.04

SELENOW (UniProt P63302)
inactive: alvocidib -0.069 | Tubastatin A 0 | [4] -0.008

SEMA4G isoform 2 (UniProt Q9NTN9)
inactive: alvocidib -0.116 | [1] 0.122 | defactinib -0.047 | [2] 0.143 | encorafenib -0.193 | [3] 0.215

SDR39U1 (UniProt Q9NRG7)
inactive: alvocidib -0.099 | Tubastatin A -0.043 | [1] 0.165 | alisertib 0.114 | [4] -0.243 | gefitinib -0.099

— the supplement of paper PMC10849652
